{
  "sequences": {"note": "Protein sequences, listed by entry. Tags and fused reporters are not part of them. Lines headed by an entry give the natural chain unless they say otherwise; changes in a name come on top.", "UniProt Q9NXC5": "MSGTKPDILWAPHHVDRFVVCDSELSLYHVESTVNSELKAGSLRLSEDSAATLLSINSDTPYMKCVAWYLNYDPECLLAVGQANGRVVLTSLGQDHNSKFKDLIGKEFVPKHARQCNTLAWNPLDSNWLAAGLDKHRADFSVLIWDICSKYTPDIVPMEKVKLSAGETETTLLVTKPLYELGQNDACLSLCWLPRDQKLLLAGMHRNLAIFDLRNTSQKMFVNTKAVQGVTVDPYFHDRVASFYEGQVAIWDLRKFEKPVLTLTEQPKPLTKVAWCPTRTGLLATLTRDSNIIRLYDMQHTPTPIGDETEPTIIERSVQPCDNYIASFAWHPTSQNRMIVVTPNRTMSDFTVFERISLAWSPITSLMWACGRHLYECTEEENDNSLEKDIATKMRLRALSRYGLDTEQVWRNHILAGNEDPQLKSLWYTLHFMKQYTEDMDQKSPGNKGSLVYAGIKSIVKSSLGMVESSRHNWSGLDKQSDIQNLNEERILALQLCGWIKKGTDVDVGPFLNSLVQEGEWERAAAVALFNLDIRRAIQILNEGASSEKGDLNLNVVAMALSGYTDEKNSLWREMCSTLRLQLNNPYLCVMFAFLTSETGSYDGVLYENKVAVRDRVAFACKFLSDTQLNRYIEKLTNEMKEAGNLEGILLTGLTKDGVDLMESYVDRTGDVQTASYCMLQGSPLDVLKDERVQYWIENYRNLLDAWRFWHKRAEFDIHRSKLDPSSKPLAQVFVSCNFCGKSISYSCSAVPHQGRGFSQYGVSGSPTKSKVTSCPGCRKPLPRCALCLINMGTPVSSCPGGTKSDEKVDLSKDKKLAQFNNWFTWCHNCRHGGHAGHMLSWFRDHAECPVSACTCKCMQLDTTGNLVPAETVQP", "UniProt O75140": "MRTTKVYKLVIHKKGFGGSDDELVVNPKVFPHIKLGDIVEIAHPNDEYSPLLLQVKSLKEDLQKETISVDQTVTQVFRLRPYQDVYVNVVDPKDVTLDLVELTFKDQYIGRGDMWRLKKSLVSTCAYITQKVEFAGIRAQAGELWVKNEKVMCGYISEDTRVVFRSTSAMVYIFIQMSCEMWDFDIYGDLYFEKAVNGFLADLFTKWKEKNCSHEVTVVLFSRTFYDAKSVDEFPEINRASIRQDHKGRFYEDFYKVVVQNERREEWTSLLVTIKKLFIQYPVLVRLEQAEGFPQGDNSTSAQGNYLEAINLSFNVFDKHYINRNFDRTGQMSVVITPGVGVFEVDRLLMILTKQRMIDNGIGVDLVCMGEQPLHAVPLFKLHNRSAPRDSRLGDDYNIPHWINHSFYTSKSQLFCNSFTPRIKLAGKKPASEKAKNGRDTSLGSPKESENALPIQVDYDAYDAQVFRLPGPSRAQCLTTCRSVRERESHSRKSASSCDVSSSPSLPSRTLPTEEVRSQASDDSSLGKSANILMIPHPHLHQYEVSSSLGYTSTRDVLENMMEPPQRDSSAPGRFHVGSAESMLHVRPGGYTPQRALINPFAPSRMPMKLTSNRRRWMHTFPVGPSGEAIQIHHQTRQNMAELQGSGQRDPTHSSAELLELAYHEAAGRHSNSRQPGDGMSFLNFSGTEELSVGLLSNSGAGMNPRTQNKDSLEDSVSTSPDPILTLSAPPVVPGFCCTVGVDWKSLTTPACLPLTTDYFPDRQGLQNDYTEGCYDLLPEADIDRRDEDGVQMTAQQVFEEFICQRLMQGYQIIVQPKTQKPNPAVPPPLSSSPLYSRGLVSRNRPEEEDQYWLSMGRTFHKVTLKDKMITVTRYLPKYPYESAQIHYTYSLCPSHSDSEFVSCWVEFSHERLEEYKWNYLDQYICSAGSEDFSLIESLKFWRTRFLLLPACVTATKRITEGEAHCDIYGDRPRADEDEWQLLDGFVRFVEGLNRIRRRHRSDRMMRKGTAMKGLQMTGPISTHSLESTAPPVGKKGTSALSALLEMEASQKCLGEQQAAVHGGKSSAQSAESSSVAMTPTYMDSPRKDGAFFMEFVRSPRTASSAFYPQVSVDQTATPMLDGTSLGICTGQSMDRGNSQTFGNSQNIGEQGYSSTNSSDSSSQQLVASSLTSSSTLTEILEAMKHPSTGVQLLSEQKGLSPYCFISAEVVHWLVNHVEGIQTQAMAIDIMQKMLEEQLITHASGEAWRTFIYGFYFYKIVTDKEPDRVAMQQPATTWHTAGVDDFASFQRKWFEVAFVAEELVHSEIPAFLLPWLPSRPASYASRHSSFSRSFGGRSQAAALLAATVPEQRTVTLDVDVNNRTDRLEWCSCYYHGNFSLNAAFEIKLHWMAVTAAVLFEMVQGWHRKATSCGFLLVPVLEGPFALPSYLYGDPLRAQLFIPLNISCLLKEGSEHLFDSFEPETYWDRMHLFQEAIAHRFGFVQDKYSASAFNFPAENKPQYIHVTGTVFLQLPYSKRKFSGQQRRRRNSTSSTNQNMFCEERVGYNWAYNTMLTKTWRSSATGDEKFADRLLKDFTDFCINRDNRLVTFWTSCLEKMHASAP"},
  "source": "patent US20170285043A1",
  "molecular_target": "GATOR2, recombinant, transiently co-expressed (HA-Mios, HA-WDR59, HA-WDR24, HA-Sec13, HA-Seh1L) (Homo sapiens (Human)) (UniProt Q9NXC5)",
  "test": "co-immunoprecipitation from HEK-293T with increasing amounts of FLAG-Sestrin2, immunoblot (FIG. 5B)",
  "note": "Results are given in words; binding and its absence hold for the method and conditions named. Binding seen in cells or lysates may run through a third protein. Some binding calls cover weakened binding; strength is not graded here.",
  "data": [
    {"substance": "GATOR1, recombinant (HA-Depdc5, HA-Npr13, HA-Npr12) (from UniProt O75140 1-1603; Q8WTW4 1-380; Q12980 1-569)", "values": [
      {"measurement": "binding", "value": "binds"}
    ]}
  ]
}
